1 substance from PMC12463039 can be followed below.

By UniProt entry, the sequences of proteins in these tests, tags left out.
UniProt P06733: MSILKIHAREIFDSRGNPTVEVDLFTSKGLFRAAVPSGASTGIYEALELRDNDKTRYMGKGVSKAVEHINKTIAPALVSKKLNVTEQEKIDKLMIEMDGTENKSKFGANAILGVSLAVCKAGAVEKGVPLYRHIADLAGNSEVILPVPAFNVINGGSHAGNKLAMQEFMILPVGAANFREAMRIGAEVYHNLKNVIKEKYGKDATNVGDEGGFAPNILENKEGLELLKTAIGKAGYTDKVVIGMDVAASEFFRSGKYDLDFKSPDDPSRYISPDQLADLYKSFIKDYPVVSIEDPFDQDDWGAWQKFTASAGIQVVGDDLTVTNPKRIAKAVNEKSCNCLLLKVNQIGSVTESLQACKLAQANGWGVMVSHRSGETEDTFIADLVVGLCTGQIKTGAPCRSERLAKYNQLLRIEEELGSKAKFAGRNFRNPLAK
UniProt P46934: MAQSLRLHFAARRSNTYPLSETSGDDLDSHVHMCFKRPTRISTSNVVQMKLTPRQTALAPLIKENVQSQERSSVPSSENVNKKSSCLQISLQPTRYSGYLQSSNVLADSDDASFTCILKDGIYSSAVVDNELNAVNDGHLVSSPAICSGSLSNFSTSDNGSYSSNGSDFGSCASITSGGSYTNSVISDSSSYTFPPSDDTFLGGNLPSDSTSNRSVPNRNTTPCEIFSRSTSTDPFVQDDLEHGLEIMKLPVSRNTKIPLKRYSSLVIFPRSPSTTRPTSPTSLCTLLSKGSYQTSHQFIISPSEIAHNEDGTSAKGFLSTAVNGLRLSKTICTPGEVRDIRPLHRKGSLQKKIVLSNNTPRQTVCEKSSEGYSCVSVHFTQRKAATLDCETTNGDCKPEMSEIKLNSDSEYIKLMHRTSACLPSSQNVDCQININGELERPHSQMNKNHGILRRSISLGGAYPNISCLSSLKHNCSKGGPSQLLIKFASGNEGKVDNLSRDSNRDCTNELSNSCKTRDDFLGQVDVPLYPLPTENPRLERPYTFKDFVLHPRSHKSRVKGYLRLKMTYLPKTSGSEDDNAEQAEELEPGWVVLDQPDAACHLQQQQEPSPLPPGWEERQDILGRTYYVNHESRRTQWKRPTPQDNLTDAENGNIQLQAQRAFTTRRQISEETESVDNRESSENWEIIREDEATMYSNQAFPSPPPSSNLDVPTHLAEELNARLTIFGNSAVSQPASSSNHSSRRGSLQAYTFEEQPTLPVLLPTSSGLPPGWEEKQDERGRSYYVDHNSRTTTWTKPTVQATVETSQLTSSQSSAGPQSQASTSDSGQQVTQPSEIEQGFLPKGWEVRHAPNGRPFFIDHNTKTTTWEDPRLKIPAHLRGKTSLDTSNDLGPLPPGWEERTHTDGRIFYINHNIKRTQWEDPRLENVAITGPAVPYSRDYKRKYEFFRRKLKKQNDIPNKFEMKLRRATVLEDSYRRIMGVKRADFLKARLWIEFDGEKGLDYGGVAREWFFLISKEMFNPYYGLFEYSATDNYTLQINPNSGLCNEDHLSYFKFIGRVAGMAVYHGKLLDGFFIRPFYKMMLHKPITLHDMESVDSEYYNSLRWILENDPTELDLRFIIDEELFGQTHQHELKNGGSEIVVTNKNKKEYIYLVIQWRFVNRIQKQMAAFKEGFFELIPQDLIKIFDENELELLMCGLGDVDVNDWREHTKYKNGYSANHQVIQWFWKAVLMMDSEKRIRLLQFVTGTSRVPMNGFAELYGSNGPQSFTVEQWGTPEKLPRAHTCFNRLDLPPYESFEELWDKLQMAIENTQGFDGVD

These are yes or no findings as the source states them, for the method shown. In cells and extracts the contact can be indirect. Some binding calls cover weakened binding; strength is not graded here.

The target of the assay is Enolase 1 (ENO1), endogenous in PASMCs (human (endogenous in primary human PASMCs)) (UniProt P06733). Description: co-IP; PASMC lysates (RIPA buffer) incubated with IP antibodies against ENO1, NEDD4, FLAG or IgG (1:50) overnight at 4 °C, protein A/G beads 6 h at 4 °C; Western blot.

Turning to “E3 ubiquitin ligase NEDD4 (down regulated protein 4 in neural precursor cell development) (from UniProt P46934 1-1319) (enzyme)”, the binding result is recorded as “binds”.
